Results are given in words; binding and its absence hold for the method and conditions named. In cells and extracts the contact can be indirect. Some binding calls cover weakened binding; strength is not graded here. Tags and fused reporters may be left off the sequences shown.
Target: RBP-Jκ (recombination signal binding protein for immunoglobulin kappa J region), full-length, with HA tag (human) (UniProt Q06330)
Assay: co-IP; 293T cells co-transfected with RBP-Jκ (HA tag) and wt or mt Notch2 (myc tag); lysed after 48 h; IP with HA antibody, protein G Plus-Agarose; western blotting

Sequences of proteins named here, by UniProt entry; tags and fusion partners are left off.
UniProt Q06330: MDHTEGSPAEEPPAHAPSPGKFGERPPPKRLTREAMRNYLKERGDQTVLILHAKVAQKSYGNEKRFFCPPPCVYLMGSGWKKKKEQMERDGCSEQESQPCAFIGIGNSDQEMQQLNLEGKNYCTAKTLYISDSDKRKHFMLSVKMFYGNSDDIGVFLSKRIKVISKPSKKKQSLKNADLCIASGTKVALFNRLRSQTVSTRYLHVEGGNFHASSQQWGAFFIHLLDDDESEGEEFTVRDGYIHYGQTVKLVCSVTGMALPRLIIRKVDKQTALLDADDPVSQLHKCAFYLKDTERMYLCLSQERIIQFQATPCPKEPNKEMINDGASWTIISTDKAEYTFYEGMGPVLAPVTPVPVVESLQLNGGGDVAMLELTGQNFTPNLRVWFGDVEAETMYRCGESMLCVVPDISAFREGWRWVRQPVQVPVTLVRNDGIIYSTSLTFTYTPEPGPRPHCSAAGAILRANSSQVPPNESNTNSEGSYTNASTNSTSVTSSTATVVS

binding: binds
B1: mutant-type (truncate) Notch2 intracellular domain, 1699-2435 aa, with six-repeating myc tag (domain or fragment, UniProt Q04721 1699-2435)
chain: MAKRKRKHGSLWLPEGFTLRRDASNHKRREPVGQDAVGLKNLSVQVSEANLIGTGTSEHWVDDEGPQPKKVKAEDEALLSEEDDPIDRRPWTQQHLEAADIRRTPSLALTPPQAEQEVDVLDVNVRGPDGCTPLMLASLRGGSSDLSDEDEDAEDSSANIITDLVYQGASLQAQTDRTGEMALHLAARYSRADAAKRLLDAGADANAQDNMGRCPLHAAVAADAQGVFQILIRNRVTDLDARMNDGTTPLILAARLAVEGMVAELINCQADVNAVDDHGKSALHWAAAVNNVEATLLLLKNGANRDMQDNKEETPLFLAAREGSYEAAKILLDHFANRDITDHMDRLPRDVARDRMHHDIVRLLDEYNVTPSPPGTVLTSALSPVICGPNRSFLSLKHTPMGKKSRRPSAKSTMPTSLPNLAKEAKDAKGSRRKKSLSEKVQLSESSVTLSPVDSLESPHTYVSDTTSSPMITSPGILQASPNPMLATAAPPAPVHAQHALSFSNLHEMQPLAHGASTVLPSVSQLLSHHHIVSPGSGSAGSLSRLHPVPVPADWMNRMEVNETQYNEMFGMVLAPAEGTHPGIAPQSRPPEGKHITTPREPLPPIVTFQLIPKGSIAQPAGAPQPQSTCPPAVAGPLPTMYQIPEMARLPSVAFPTAMMPQQDGQVAQTILPAYHPFPASVGKYPTPPSQHSYASSNAAERTPSHSGHLQGEHPYLTPSPESPDQWSSSSPHSASD

— paper PMC4196756
